PMC12562877
No constants are given. Whether binding was seen depends on the method and setting. In cells and extracts the contact can be indirect. A yes stands for co-enrichment or nearness to the bait. Other partners may have been found.

Amino acid sequences for entries named in this document (tags omitted). Residues count along the entry.
UniProt Q05397: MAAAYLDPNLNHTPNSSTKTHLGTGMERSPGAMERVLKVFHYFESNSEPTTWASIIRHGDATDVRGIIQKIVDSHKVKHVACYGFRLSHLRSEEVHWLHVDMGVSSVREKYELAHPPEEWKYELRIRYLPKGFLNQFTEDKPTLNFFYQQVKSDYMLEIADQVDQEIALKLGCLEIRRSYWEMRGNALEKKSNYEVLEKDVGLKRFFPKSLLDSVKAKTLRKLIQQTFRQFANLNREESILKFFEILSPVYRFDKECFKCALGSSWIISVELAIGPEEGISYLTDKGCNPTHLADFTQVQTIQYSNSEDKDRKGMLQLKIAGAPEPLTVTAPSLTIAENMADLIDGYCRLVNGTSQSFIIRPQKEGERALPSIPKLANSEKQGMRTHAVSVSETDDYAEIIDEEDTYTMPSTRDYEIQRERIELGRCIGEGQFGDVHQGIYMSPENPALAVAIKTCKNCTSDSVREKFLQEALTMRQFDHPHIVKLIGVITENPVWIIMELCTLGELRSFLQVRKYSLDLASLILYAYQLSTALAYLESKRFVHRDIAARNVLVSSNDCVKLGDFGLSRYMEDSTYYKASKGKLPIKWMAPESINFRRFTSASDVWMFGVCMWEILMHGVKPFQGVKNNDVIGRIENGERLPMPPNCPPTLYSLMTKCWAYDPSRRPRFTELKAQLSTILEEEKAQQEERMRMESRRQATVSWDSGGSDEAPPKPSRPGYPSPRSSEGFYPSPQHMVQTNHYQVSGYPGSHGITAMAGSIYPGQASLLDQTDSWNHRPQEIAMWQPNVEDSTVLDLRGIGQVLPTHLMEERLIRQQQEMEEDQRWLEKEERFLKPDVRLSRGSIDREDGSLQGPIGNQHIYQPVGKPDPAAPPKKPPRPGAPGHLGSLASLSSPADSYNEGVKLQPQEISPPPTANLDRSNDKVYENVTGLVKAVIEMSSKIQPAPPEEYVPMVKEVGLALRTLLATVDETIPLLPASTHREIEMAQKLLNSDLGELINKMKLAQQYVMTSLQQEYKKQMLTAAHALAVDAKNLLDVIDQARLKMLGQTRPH
UniProt Q9NZQ7, residues 19-290: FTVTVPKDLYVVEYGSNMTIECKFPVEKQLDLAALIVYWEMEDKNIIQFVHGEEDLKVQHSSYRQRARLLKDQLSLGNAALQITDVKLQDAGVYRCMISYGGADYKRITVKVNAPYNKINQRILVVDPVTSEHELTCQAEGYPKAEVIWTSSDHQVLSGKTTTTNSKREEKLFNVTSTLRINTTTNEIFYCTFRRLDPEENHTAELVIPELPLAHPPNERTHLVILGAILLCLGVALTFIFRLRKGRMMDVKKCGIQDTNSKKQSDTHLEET

Biological target: focal adhesion kinase (FAK), endogenous in BT-549 cells (human (endogenous in BT-549)) (UniProt Q05397)
Assay: proximity labelling; ProtA-TurboID; BT-549 cells permeabilized with 0.04% digitonin, incubated with IgG (control) or anti-FAK antibody, then ProtA-TurboID; biotinylation at 37 C for 10 min; streptavidin pull-down; blot anti-PD-L1

For “programmed death-ligand 1 (PD-L1), endogenous in BT-549 cells (from UniProt Q9NZQ7 19-290)”, the binding was “binds”.
